Laboratory results: publication PMC7373190, “Archaeal Chromatin Proteins Cren7 and Sul7d Compact DNA by Bending and Bridging” (mBio, 2020)
No constants are given. Whether binding was seen depends on the method and setting. Some results given as binding are weak or reduced against the parent protein; the word gives no strength.

Target: Cren7 (Sulfolobus islandicus) (UniProt C3MPN0)
Test: cross-linking; 0.5 mg/ml protein in 50 mM HEPES-KOH pH 7.8, 150 mM NaCl, DSS, 1 h at room temperature; trypsin digest, nano-LC-MS/MS, pLink 2.0; only two cross-linked peptides with the same lysine taken as intermolecular; both purified

B1: Cren7 (protein, UniProt C3MPN0 8-60)
chain: VKVKTPAGKEAELVPEKVWALAPKGRKGVKIGLFKDPETGKYFRHKLPDDYPI
binding: binds
